Reference: paper PMC5472812
No constants are given. Whether binding was seen depends on the method and setting. Binding seen in cells or lysates may run through a third protein. Binding calls can cover weak binding; strength is not graded here.

By UniProt entry, the sequences of proteins in these tests, tags left out. Where a name states a change or a piece, a line headed by the entry shows the natural chain unless it says otherwise.
UniProt Q9A749: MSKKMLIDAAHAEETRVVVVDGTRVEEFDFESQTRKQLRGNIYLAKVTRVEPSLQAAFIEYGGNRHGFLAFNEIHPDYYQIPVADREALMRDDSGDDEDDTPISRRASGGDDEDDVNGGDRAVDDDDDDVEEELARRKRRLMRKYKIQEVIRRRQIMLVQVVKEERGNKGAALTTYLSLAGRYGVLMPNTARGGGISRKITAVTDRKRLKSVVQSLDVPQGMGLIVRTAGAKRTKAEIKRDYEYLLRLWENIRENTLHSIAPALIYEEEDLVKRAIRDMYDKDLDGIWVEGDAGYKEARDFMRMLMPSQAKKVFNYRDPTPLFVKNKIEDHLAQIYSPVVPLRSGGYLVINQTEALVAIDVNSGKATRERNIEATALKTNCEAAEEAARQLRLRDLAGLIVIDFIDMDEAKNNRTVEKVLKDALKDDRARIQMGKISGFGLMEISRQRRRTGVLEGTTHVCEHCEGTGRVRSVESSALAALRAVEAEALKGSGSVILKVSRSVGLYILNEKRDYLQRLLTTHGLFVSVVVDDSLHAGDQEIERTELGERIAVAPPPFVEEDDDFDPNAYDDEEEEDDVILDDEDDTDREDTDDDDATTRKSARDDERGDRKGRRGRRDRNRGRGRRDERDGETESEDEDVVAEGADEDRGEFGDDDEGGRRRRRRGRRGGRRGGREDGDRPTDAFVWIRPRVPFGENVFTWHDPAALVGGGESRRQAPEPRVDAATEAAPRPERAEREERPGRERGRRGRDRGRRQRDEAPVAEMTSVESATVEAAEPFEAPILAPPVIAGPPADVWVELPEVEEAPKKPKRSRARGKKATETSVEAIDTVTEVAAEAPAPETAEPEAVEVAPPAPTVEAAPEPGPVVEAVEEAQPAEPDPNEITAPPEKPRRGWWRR
UniProt A0A0H3CG88: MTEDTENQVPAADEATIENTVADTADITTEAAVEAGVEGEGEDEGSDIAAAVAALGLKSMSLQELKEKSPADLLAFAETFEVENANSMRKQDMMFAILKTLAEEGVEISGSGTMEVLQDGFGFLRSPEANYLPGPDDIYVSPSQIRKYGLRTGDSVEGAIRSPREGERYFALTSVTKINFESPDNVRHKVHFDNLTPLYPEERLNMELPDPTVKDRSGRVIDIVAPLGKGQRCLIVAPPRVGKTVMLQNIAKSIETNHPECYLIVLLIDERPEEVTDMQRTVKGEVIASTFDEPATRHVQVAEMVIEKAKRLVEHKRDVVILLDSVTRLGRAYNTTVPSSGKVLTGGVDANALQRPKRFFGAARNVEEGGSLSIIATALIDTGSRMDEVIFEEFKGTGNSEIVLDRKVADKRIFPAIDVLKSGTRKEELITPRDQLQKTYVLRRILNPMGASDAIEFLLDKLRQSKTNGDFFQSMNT

Target: FLAG-tagged RNase E (Caulobacter crescentus NA1000) (UniProt Q9A749)
Experiment: co-IP; FLAG-RNase E degradosomes isolated on anti-FLAG gel from NA1000 or ΔrhlB cells grown at 30°C or 15°C; Rho detected by immunoblot with anti-Rho serum

transcription terminator Rho (CCNA_03876) (from UniProt A0A0H3CG88) (enzyme)
binding: binds
